Source: patent US12325867B2, “Organoid produced using carrier for cell culture, and method for evaluating drug toxicity using same” (Korea Research Institute of Chemical Technology, priority 2018, dated 2025)

Tested on: artificial myocardial structure (cardiac organoid)
Test: contractile force-based cardiac toxicity assessment using the artificial myocardial structure
Format: cell-based, human
Details: group treated with 100 nM
Description: Furthermore, after additionally treating an artificial myocardial structure prepared by coculturing gelatin oil capsules and cardiomyocytes with various drugs, contractile forces of the drug-treated artificial myocardial structure were checked.

## COC(=O)C1=C(C)NC(C)=C(C(=O)OC)C1c1ccccc1[N+](=O)[O-] [Nifedipine]
  beat rates: changed into slow beat rates
  contractile forces: weakened
